For one molecule, ΔS results are on record in patent US20050004011A1, “Compositions and methods for treating bacterial infections with protein-dalbavancin complexes” (priority 2002, published 2005).

The structures appear in SMILES notation. Structures can show the parent of a compound that is named as a salt.

This data set deals with N,N′-diacetyl-Lys-D-Ala-D-Ala. Briefly: ITC of binding to tri-peptide, with and without HSA. The settings on record: T 25 ° C., [HSA] 513 μM.

The molecule `CN[C@H](CC(C)C)C(=O)N[C@H]1C(=O)N[C@@H](CC(N)=O)C(=O)N[C@H]2C(=O)N[C@H]3C(=O)N[C@H](C(=O)N[C@H](C(=O)O)c4cc(O)cc(O)c4-c4cc3ccc4O)[C@H](O)c3ccc(c(Cl)c3)Oc3cc2cc(c3O[C@@H]2O[C@H](CO)[C@@H](O)[C@H](O)[C@H]2O[C@H]2C[C@](C)(N)[C@H](O)[C@H](C)O2)Oc2ccc(cc2Cl)[C@H]1O` [Vancomycin, vancomycin hydrochloride, reference compound] registered a ΔS of −8.80 eu.
